Values quoted from earlier work, collected in patent US20100158905A1, “COMBINATION THERAPY OF ARTHRITIS WITH TRANILAST” (NUON THERAPEUTICS, INC., priority 2008, published 2010).
At least one structure is not confirmed: it was looked up by name or label, or the drawing left a doubt.

Test system: rheumatoid arthritis
Settings: usual maintenance dose

For `CN(C)c1ccc(O)c2c1C[C@H]1C[C@H]3[C@H](N(C)C)C(O)=C(C(N)=O)C(=O)[C@@]3(O)C(O)=C1C2=O` [Minocycline], the “Approximate time to benefit” value is listed as 1-3 months.
